# Assay results as given in patent publication US20230340127A1, “METHODS AND COMPOSITIONS FOR CANCER TREATMENT BY INHIBITION OF FBXO44” (Sanford Burnham Prebys Medical Discovery Institute, priority 2022, published 2023).
# No constants are given. Whether binding was seen depends on the method and setting. Binding seen in cells or lysates may run through a third protein. Some binding calls cover weakened binding; strength is not graded here.
# B1: FBXO44 (endogenous F-box protein FBXO44), Q9H4M3 1-255 (protein, human, UniProt Q9H4M3 1-255, looked up)
# chain: MAVGNINELPENILLELFTHVPARQLLLNCRLVCSLWRDLIDLVTLWKRKCLREGFITEDWDQPVADWKIFYFLRSLHRNLLHNPCAEEGFEFWSLDVNGGDEWKVEDLSRDQRKEFPNDQVKKYFVTSYYTCLKSQVVDLKAEGYWEELMDTTRPDIEVKDWFAARPDCGSKYQLCVQLLSSAHAPLGTFQPDPATIQQKSDAKWREVSHTFSNYPPGVRYIWFQHGGVDTHYWAGWYGPRVTNSSITIGPPLP
# Target: CUL4A (endogenous), Q13619
# Assay: co-IP of endogenous FBXO44 in MDA-MB-231 cells, immunoblot; CRL4 components named CUL4A/CUL4B in the legend of FIG. 4A
# Conditions: remark: other sources report otherwise
binder,measurement,value
B1,binding,binds
